Experimental data: PubChem BioAssay AID686938 (Drosophila RNAi Screening Center, 2013)

Aim: 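Knock-downs reducing store-operated calcium influx in Drosophila cells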 (primary screen)
Cells: Drosophila S2R+ cells
Reagent: long dsRNA against Drosophila genes, about 0.25 µg dsRNA per well, roughly 10,000 cells
Time to read-out: 5 days of knock-down before the calcium assay
Conditions: thapsigargin (SERCA pump blocker) to empty calcium stores; entry signal taken 4 min after adding it
Measurement: 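Duplicate raw fluo-4 intensities per well from a plate reader, at rest and four minutes after thapsigargin emptied calcium stores; entry-to-rest ratio filled for only some wells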
Scale: calcium entry signal: higher = stronger calcium signal after store depletion; resting calcium signal: higher = higher resting calcium signal
Active means: 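Hit if the duplicate-averaged plate z-score for entry over resting signal is under −3; wells with weak total dye signal (Fmax z < −2) or more than 5 off-targets removed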
Calls: active = strongly reduced calcium entry; inactive = no strong reduction
In all, the deposit lists about 23,000 reagents; this is an unselected part of those with a known target gene and a result. In the full data, 75 (0.33%) are marked active. 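Raw plate signals without normalisation; calls rest on plate z-scores that were not deposited; ratio present for only 364 wells.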 Unmarked entries are inactive. No sequences are given here. The record does not give: the dose of the treatment.

Against CG42741 [DRSC04593] the deposit lists calcium entry signal, replicate 1 (fluorescence units) = 4.36e7; calcium entry signal, replicate 2 (fluorescence units) = 5.26e7; resting calcium signal, replicate 1 (fluorescence units) = 2.22e7; resting calcium signal, replicate 2 (fluorescence units) = 2.41e7.
CG42741 [DRSC22045] showed calcium entry signal, replicate 1 (fluorescence units) = 3.07e7; calcium entry signal, replicate 2 (fluorescence units) = 4.44e7; resting calcium signal, replicate 1 (fluorescence units) = 1.47e7; resting calcium signal, replicate 2 (fluorescence units) = 2.02e7.
CG4781 [DRSC04488] scored calcium entry signal, replicate 1 (fluorescence units) = 4.59e7; calcium entry signal, replicate 2 (fluorescence units) = 4.26e7; resting calcium signal, replicate 1 (fluorescence units) = 2.20e7; resting calcium signal, replicate 2 (fluorescence units) = 1.92e7.
Knock-down of Ts [DRSC00795] came out at: calcium entry signal, replicate 1 (fluorescence units) = 2.05e7; calcium entry signal, replicate 2 (fluorescence units) = 2.05e7; resting calcium signal, replicate 1 (fluorescence units) = 1.10e7; resting calcium signal, replicate 2 (fluorescence units) = 9.95e6.
After knock-down of Ts [DRSC22168], the screen gave calcium entry signal, replicate 1 (fluorescence units) = 2.59e7; calcium entry signal, replicate 2 (fluorescence units) = 4.98e7; resting calcium signal, replicate 1 (fluorescence units) = 1.47e7; resting calcium signal, replicate 2 (fluorescence units) = 2.70e7.
Ccp84Af [DRSC12591] scored calcium entry signal, replicate 1 (fluorescence units) = 4.48e7; calcium entry signal, replicate 2 (fluorescence units) = 3.32e7; resting calcium signal, replicate 1 (fluorescence units) = 1.71e7; resting calcium signal, replicate 2 (fluorescence units) = 1.44e7.
Knock-down of CG42656 [DRSC12472] resulted in: calcium entry signal, replicate 1 (fluorescence units) = 3.37e7; calcium entry signal, replicate 2 (fluorescence units) = 4.16e7; resting calcium signal, replicate 1 (fluorescence units) = 1.72e7; resting calcium signal, replicate 2 (fluorescence units) = 2.42e7.

Reformatted: results already given
{"gene knocked down": "Ts", "dsRNA": "DRSC00795", "calcium entry signal, replicate 1 (fluorescence units)": 2.05e7, "calcium entry signal, replicate 2 (fluorescence units)": 2.05e7, "resting calcium signal, replicate 1 (fluorescence units)": 1.10e7, "resting calcium signal, replicate 2 (fluorescence units)": 9.95e6}
{"gene knocked down": "Ts", "dsRNA": "DRSC22168", "calcium entry signal, replicate 1 (fluorescence units)": 2.59e7, "calcium entry signal, replicate 2 (fluorescence units)": 4.98e7, "resting calcium signal, replicate 1 (fluorescence units)": 1.47e7, "resting calcium signal, replicate 2 (fluorescence units)": 2.70e7}

The listing continues.
CG33458 [DRSC22891] scored calcium entry signal, replicate 1 (fluorescence units) = 4.15e7; calcium entry signal, replicate 2 (fluorescence units) = 3.31e7; resting calcium signal, replicate 1 (fluorescence units) = 2.42e7; resting calcium signal, replicate 2 (fluorescence units) = 1.61e7.
With knock-down of Rbm13 [DRSC17749] the results were calcium entry signal, replicate 1 (fluorescence units) = 1.83e7; calcium entry signal, replicate 2 (fluorescence units) = 2.14e7; resting calcium signal, replicate 1 (fluorescence units) = 1.02e7; resting calcium signal, replicate 2 (fluorescence units) = 1.21e7.
CG32263 [DRSC22431] showed calcium entry signal, replicate 1 (fluorescence units) = 4.42e7; calcium entry signal, replicate 2 (fluorescence units) = 3.64e7; resting calcium signal, replicate 1 (fluorescence units) = 2.19e7; resting calcium signal, replicate 2 (fluorescence units) = 1.56e7.
CG13545 [DRSC04187] showed calcium entry signal, replicate 1 (fluorescence units) = 3.56e7; calcium entry signal, replicate 2 (fluorescence units) = 4.35e7; resting calcium signal, replicate 1 (fluorescence units) = 1.81e7; resting calcium signal, replicate 2 (fluorescence units) = 2.04e7.
Against Muc55B [DRSC21440], the entry reads calcium entry signal, replicate 1 (fluorescence units) = 4.12e7; calcium entry signal, replicate 2 (fluorescence units) = 2.96e7; resting calcium signal, replicate 1 (fluorescence units) = 2.26e7; resting calcium signal, replicate 2 (fluorescence units) = 1.41e7.
Silencing of Boh2 [DRSC02777] gave: calcium entry signal, replicate 1 (fluorescence units) = 3.36e7; calcium entry signal, replicate 2 (fluorescence units) = 4.24e7; resting calcium signal, replicate 1 (fluorescence units) = 1.62e7; resting calcium signal, replicate 2 (fluorescence units) = 1.91e7.
CG7453 [DRSC20046] showed calcium entry signal, replicate 1 (fluorescence units) = 4.86e7; calcium entry signal, replicate 2 (fluorescence units) = 4.02e7; resting calcium signal, replicate 1 (fluorescence units) = 2.24e7; resting calcium signal, replicate 2 (fluorescence units) = 1.74e7.
